The text below walks through data of US20160202245A1.

The chains behind the UniProt entries cited, without tags or fusion partners. Residues count along the entry.
UniProt P60880, residues 1-197: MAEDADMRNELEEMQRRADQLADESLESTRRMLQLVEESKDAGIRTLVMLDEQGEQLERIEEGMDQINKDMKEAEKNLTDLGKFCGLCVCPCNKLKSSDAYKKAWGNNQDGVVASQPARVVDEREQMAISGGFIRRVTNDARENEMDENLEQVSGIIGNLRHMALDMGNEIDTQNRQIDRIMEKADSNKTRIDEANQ

The target of this test is BoNT/A-cleaved SNAP-25197 (UniProt P60880). As to the kind of experiment: ELISA and Western blots. Background: ELISA stands for enzyme-linked immunosorbent assay.

Positions count from the first letter of the chain named. Results are given in words; binding and its absence hold for the method and conditions named. Some entries that bind do so weakly or less than the wild type.

B1: mouse monoclonal antibody 5-10-5 (antibody, V domains shown)
VH: DVQLQESGPGLVKPSQSLSLTCTVTGFSITSDYAWNWIRQFPGNKLEWMGYISYKYGTRYNPSLKGRISITRDTSKNQFFLQLNSLTTEDTAIYYCARRGTDGYGFAYWGQGTLVTVSA
VL: DIVLTQSPASLGVSLGQRATISCRASESVSSSGYSYIHWYQQRPGQPPKLLIFLASNLESGVPARFSGSGSGTDFTLNIHPVEEEDAATYYCQHSRELPLTFGAGTKLELK
For the molecule B1, the binding result is reported as “binds”.

B2: mouse monoclonal antibody 20-2-5 (antibody, V domains shown)
VH: EVNLVESGGDLVKPGGSLKLSCAVSGFTFSGYAMSWVRQTPEKRLEWVASIATNGSTYYPDTVKGRFTIFRDNARNILYLQMSSLRSEDTAIYYCTRLRGFDNWGQGTTLTVSS
VL: DVLMTQIPLSLPVSLGDQASISCRSSQNIVHSNGNTYLEWYLQKSGQSPKLLIYKVFKRLSGVPDRFSGSGSGTDFTLRISRVEAEDLGVYYCFQGSHVPYTFGGGTKLEIK
In the case of B2, the binding result is “binds”.

B3: mouse monoclonal antibody 18-3-3 (antibody, V domains shown)
VH: EVKLVESGGGLVKPGGSLKLSCAASGFTFRSYAVSWVRQTPEKRLEWVASISTNGSTYYPDSMKGRFTISRDTARNILYLEMNSLRSEDTAMYYCARLRGFDYWGQGTPLTVSS
VL: B2 VL with I7T, N28S, S45P, F57S, L60F, R79K, S81T
Regarding B3, the binding entry is “binds”.

B4: mouse monoclonal antibody 16-5-4 (antibody, V domains shown)
VH: EVKLVESGGDLVKPGGSLKLSCAASGFTFNTYAMSWVRQTPEKRLEWVASISSNGSTYHPESVKGRFTISRDIARNILNLQMSSLRSEDTAIYYCSRLRGFDYWGQGTTLTVSS
VL: B2 VL with I7T, N28S, S45P, L51P, L60F, R79K
In the case of B4, the binding entry is on record as “binds”.

B5: mouse monoclonal antibody 14-12-1 (antibody, V domains shown)
VH: EVKLVESGGDLVKPGGSLKLSCAASGFTLSDYAMSWVRQSPEERLEWVASISTNGSTYYPDSVKGRFTISRDNARNILSLQMSSLRSEDTAIYYCTRLRGFDNWGQGTLLTVSS
VL: B2 VL with I7T, I53M, F57S, S70R, R79K
With B5, the binding result is reported as “binds”.

B6: mouse monoclonal antibody 1-10-4 (antibody, V domains shown)
VH: EVKLVESGGDLVKPGGSLKLSCAVSGFSLNTYAMSWVRQTPEQRLEWVASISTNGSTYHSDSVKGRFTISRYNARNILYLQMSSLRSEDSAIYYCTRLRGFDYWGQGTTLTVSS
VL: B2 VL with V2I, I7T, P12S, S45P, L51P, V56L, F57S, L60F, D75Y, R79K
With B6, the binding entry is reported as “binds”.

B7: mouse monoclonal antibody 6-3-8 (antibody, V domains shown)
VH: EVKLVEFGGGLVEPRGSLKLSCAASGFTFSTYAMSWVRQTPEKRLEWVASIASNGSTYYPDSVRGRFTISRDNARNILYLQMSSLRSEDTAMYYCSRLRGFDYWGQGSTLTVSS
VL: B2 VL with N28S, S45P, K50S, D75E, R79K, S81N
Turning to B7, the binding entry is listed as “binds”.
